PubChem BioAssay AID330 (DTP/NCI, 2004)
The list does not hold the whole screen: it gathers tests that were run many times, whatever their T/C, doses with no T/C, and many T/C values between a quarter and a half above the control. Other doses and runs of a compound stand elsewhere. T/C gives the treated animals as a percentage of the vehicle group. Some entries give survivors of the animals treated and no T/C: the source holds a T/C of zero for them, seemingly a mark for toxic or unscored doses. Some survivor counts are full or nearly so, which does not show that the dose was tolerated: survival well below the control is almost never listed, so the zero probably covers shortened survival too. Survivors were counted at the toxicity check, usually on the fifth day, unless a day is given; later deaths do not show. Schedule codes are those of the source, taken here to give the interval after Q, in days (D) or hours (H), and the number of doses after X. Some doses were run more than once; the values are given in rising order. For survival time, the PubChem record calls one and a half times the control and up active, and a quarter to a half above the control has no call in these data; cut-offs in other NCI protocols can differ.

System: P388 leukemia ip, CD2F1 mice, survival T/C
Assay: NCI In Vivo Anticancer Drug Screen. Data for tumor model P388 Leukemia (intraperitoneal) in CD2F1 (CDF1) mice
Settings: T/C endpoint: median survival time, higher T/C = longer survival
[1] = dose: 100.0 mg/kg/injection, schedule: Q01DX005 (ip), vehicle: saline with Tween-80
[2] = dose: 200.0 mg/kg/injection, schedule: Q01DX005 (ip), vehicle: saline with Tween-80
[3] = dose: 50.0 mg/kg/injection, schedule: Q01DX005 (ip), vehicle: saline with Tween-80
[4] = dose: 50.0 mg/kg/injection, schedule: Q01DX009 (ip), vehicle: saline
[5] = dose: 100.0 mg/kg/injection, schedule: Q01DX009 (ip), vehicle: saline
[6] = dose: 100.0 mg/kg/injection, schedule: Q01DX009 (ip), vehicle: Klucel (hydroxypropylcellulose) (HPC)
[7] = dose: 200.0 mg/kg/injection, schedule: Q01DX009 (ip), vehicle: Klucel (hydroxypropylcellulose) (HPC)
[8] = dose: 400.0 mg/kg/injection, schedule: Q04DX003 (ip), vehicle: saline with Tween-80
[9] = dose: 120.0 mg/kg/injection, schedule: Q01DX005 (ip), vehicle: saline with Tween-80
[10] = dose: 240.0 mg/kg/injection, schedule: Q01DX005 (ip), vehicle: saline with Tween-80

O=C1CN(CCN2CCCCC2)CC(=O)N2Cc3ccccc3CN12
survivor count [1]: 0 of 5
survivor count [2]: 0 of 5

COc1cc(/C=N/N2CC(=O)N(c3ccccc3)CC2=O)cc(OC)c1
survivor count [3]: 6 of 6
survivor count [1]: 6 of 6
survivor count [2]: 6 of 6

O=C(Nc1ncc([N+](=O)[O-])s1)c1cccnc1
survivor count (dose: 25.0 mg/kg/injection, schedule: Q01DX009 (ip), vehicle: saline): 5 of 6
survivor count [4]: 4 of 6
survivor count [5]: 5 of 6

Nc1ccccc1SC1CC(=O)N(c2ccc(Br)c(Cl)c2)C1=O (stereo not drawn)
survivor count (dose: 6.25 mg/kg/injection, schedule: Q01DX005 (ip), vehicle: saline with Tween-80): 6 of 6
survivor count (dose: 12.5 mg/kg/injection, schedule: Q01DX005 (ip), vehicle: saline with Tween-80): 6 of 6
survivor count (dose: 25.0 mg/kg/injection, schedule: Q01DX005 (ip), vehicle: saline with Tween-80): 6 of 6
survivor count [3]: 6 of 6
survivor count [1]: 6 of 6
survivor count [2]: 6 of 6

CC(=O)OCC1=CCCC1=O
survivor count (dose: 50.0 mg/kg/injection, schedule: Q01DX009 (ip), vehicle: Klucel (hydroxypropylcellulose) (HPC)): 4 of 6
survivor count [6]: 0 of 6
survivor count [7]: 0 of 6

CCC[CH2][Sn]([CH2]CCC)([CH2]CCC)[CH2]CC[N+](C)(CCO)CCO.CS(=O)(=O)[O-]
survivor count [4]: 2 of 6
survivor count [5]: 0 of 6
survivor count (dose: 200.0 mg/kg/injection, schedule: Q01DX009 (ip), vehicle: saline): 0 of 6

CN(C)c1ccc2c(c1)Cc1cc(N=C3C=CC(=O)O3)ccc1-2
survivor count [8]: 2 of 6

CCC(c1ccc(O)cc1)C(CC)c1ccc(OCCN)cc1 (stereo not drawn)
T/C [9]: 125 % of control
T/C [10]: 127 % of control
survivor count [10]: 4 of 6

COc1cccc2c1cc([N+](=O)[O-])c1c(C(=O)O)cc3c(c12)OCO3
survivor count (dose: 10.0 mg/kg/injection, schedule: Q01DX009 (ip), vehicle: Klucel (hydroxypropylcellulose) (HPC)): 6 of 6
survivor count (dose: 20.0 mg/kg/injection, schedule: Q01DX009 (ip), vehicle: saline): 6 of 6

CCOC(=O)C1=C(C(=O)c2ccc(C)cc2)C(c2ccc(Cl)cc2Cl)C(C(=O)c2ccc(C)cc2)=C(C(=O)OCC)N1
survivor count [10]: 5 of 6

CC(C)SC(=O)C[Si](C)(C)C
survivor count [8]: 3 of 6

N=C(N)SCc1ccc([N+](=O)[O-])cc1
survivor count [6]: 5 of 6
survivor count [7]: 0 of 6

O=NN(CCCl)C(=O)NCCO
T/C (dose: 0.78 mg/kg/injection, schedule: Q01DX005 (ip), vehicle: water): 138 % of control
survivor count (dose: 12.5 mg/kg/injection, schedule: Q01DX005 (ip), vehicle: water): 6 of 6
survivor count (dose: 25.0 mg/kg/injection, schedule: Q01DX005 (ip), vehicle: water): 4 of 6
survivor count (dose: 50.0 mg/kg/injection, schedule: Q01DX005 (ip), vehicle: water): 2 of 6
survivor count (dose: 100.0 mg/kg/injection, schedule: Q01DX005 (ip), vehicle: water): 0 of 6

Cc1cc(N)n2c(nc3ccccc32)c1C#N
survivor count [9]: 2 of 6
survivor count [10]: 1 of 6

CC(=O)O/N=C/c1ccccn1
survivor count (dose: 400.0 mg/kg/injection, schedule: Q04DX003 (ip), vehicle: saline): 2 of 6 and 3 of 6
